The results in this text go back to ChEMBL document CHEMBL4513147, “CO-ADD screening of Armstrong State University (GA, USA) compounds”.

The other results are listed elsewhere or left out. Potency and affinity values are given separately.

The subject of this experiment is Pseudomonas aeruginosa. The conditions noted are these: Concentration 32 ug.mL-1; ASSAY_TEST Inhibition of Bacterial Growth; detection method Absorption (OD600); MEDIA CAMHB; plate type 384well; NBS; CORNING #3640; time 18 hr.
A word on the Inhibition: it is the change of the read-out against control, counted positive when it falls. As for `COc1cc2c(cc1OC)C(=O)C(=Cc1ccoc1)CC2`, the Inhibition is recorded as 1.1%.
With `COc1ccc2c(c1)CCC(=Cc1ccoc1)C2=O` the figure was 10.57%.
For `COc1ccc(/C=C/C(=O)c2ccc(OCc3ccc(Br)cc3)cc2)cc1OC` the value was -12.17%; for `COc1ccc2c(c1)CCC(=Cc1cccnc1)C2=O`, 8.07%; for `COc1ccc2c(c1)C(=O)C(=Cc1ccccn1)CC2`, 4.56%.
With `COc1ccc2c(c1)C(=O)C(=Cc1cccnc1Cl)CC2.Cl` the figure was 6.28%.
Turning to `COc1ccc2c(c1)C(=O)C(=Cc1ccco1)CC2`, the Inhibition was found to be 6.4%.
For `COc1ccc2c(c1)CCC(=Cc1ccncc1)C2=O` the value was 6.98%; for `COc1ccc2c(c1)C(=O)C(=Cc1cncc(Br)c1)CC2`, 1.93%.
For `COc1cccc2c1CCC(=Cc1ccoc1)C2=O` the value was 1.34%.
Consider `COc1ccc2c(c1)C(=O)C(=Cc1cccnc1)CC2`, for which the Inhibition is reported as 7.48%.
For `COc1ccc2c(c1)C(=O)C(=Cc1cnccc1OC)CC2` the value was 7.85%.
With `COc1ccc2c(c1)CCC(=Cc1ccc(OC)nc1)C2=O` the figure was 12.11%.
Take `CC(C)(C)OC(=O)N1CC(=Cc2ccco2)C(=O)/C(=C/c2ccco2)C1`: the Inhibition is given as 3.63%.
Regarding `Cc1ccc(C=C2CN(C(=O)OC(C)(C)C)C/C(=C\c3ccc(C)cc3C)C2=O)c(C)c1`, the Inhibition was -3.88%.
With `COc1cc2c(cc1OC)C(=O)C(=Cc1ccco1)CC2` the figure was 2.91%; with `COc1ccc2c(c1)C(=O)C(=Cc1ccoc1)CC2`, 6.67%.
For `COc1cccc2c1CCC(=Cc1ccco1)C2=O` the value was 6.23%.
As to `COc1ccc2c(c1)C(=O)C(=Cc1cccnc1Br)CC2`, the Inhibition was found to be 2.74%.
For `COc1cccc2c1CCC(=Cc1cccc(C=C3CCc4c(OC)cccc4C3=O)c1)C2=O` the value was -14.78%.
With `CC(C)(C)OC(=O)N1CC(=Cc2ccoc2)C(=O)/C(=C/c2ccoc2)C1` the figure was -1.4%.
For `COc1ccc2c(c1)CCC(=Cc1ccco1)C2=O` the value was 8.37%; for `COc1ccc2c(c1)CCC(=Cc1ccccn1)C2=O`, 5.97%; for `COc1ccc2c(c1)CCC(=Cc1cncc(Br)c1)C2=O`, 1.12%.
Regarding `COc1ccc2c(c1)C(=O)C(=Cc1cccc(C=C3CCc4ccc(OC)cc4C3=O)c1)CC2`, the Inhibition turned out to be 4.57%.
With `COc1ccc2c(c1)C(O)C(=Cc1cccnc1Cl)CC2` (stereo unspecified) the figure was 1.37%; with `COc1ccc2c(c1)CCC(=Cc1cnccc1OC)C2=O`, 0.2%; with `COc1ccc2c(c1)CCC(=Cc1cccnc1Cl)C2=O`, 3.2%.
For `COc1ccc2c(c1)C(=O)C(=Cc1cccnc1OC)CC2` the value was 5.93%; for `COc1ccc2c(c1)C(=O)C(=Cc1cccnc1Cl)CC2`, 1.79%.
For `COc1ccc2c(c1)CCC(=Cc1cccnc1Br)C2=O` the value was 3.58%.
